Data as given in publication doi:10.1101/2023.11.30.569364.
Results are given in words; binding and its absence hold for the method and conditions named. Binding seen in cells or lysates may run through a third protein. Some entries that bind do so weakly or less than the wild type. Tags and fused reporters may be left off the sequences shown.

The chains behind the UniProt entries cited, without tags or fusion partners. Where a name states a change or a piece, a line headed by the entry shows the natural chain unless it says otherwise. Residues count along the entry.
GST IE62 (1–200) (varicella-zoster virus (VZV)) (P09310, residues 1-200): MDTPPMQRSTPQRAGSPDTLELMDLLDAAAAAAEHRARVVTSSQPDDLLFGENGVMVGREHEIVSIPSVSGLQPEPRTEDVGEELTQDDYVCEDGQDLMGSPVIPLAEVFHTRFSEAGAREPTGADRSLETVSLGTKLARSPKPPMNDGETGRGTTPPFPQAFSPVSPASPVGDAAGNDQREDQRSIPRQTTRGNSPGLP
GST IE62 (1–86) (varicella-zoster virus (VZV)) (P09310, residues 1-86): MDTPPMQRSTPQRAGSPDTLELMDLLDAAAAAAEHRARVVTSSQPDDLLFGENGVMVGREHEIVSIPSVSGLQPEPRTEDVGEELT
UniProt Q9QR71: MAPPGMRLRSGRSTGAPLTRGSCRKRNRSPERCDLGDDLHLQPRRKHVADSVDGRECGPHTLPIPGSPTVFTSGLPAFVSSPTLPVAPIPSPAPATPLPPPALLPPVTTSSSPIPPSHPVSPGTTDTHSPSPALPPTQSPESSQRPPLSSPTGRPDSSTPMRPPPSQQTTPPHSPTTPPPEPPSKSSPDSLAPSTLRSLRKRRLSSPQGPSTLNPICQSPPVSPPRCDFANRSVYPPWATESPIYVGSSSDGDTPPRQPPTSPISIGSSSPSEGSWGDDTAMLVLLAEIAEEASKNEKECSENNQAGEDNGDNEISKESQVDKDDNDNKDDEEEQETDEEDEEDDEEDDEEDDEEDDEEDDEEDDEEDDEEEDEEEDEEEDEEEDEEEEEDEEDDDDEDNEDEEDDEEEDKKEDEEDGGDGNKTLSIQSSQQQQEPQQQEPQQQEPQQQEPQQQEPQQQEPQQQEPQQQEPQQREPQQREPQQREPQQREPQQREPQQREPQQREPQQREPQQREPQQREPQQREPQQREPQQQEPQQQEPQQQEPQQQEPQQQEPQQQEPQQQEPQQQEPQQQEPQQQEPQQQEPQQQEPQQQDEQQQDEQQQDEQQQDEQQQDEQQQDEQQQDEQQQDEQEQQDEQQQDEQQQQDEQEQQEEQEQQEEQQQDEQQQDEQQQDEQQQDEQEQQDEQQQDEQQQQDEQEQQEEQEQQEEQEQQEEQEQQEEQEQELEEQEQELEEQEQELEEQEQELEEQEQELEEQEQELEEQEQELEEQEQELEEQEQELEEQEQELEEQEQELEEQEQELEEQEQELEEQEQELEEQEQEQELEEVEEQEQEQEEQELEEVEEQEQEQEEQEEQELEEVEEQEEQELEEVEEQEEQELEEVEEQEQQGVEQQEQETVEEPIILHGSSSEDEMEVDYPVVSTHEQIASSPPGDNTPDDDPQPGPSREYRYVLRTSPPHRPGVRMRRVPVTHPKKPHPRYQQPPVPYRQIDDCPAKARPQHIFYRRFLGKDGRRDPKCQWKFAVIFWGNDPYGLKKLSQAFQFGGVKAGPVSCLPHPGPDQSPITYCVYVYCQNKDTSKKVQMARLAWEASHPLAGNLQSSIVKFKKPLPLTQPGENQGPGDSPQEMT

What was measured:
Experiment in all cases: pull-down
[1] = biological target: GST IE62 (1–200) (varicella-zoster virus (VZV)) (UniProt P09310)
[2] = biological target: GST IE62 (1–86) (varicella-zoster virus (VZV)) (UniProt P09310)
[3] = biological target: GST Lana-1 (280–297) (Kaposi's sarcoma-associated herpesvirus (KSHV)) (UniProt Q9QR71)

Measured: binding

B1: human MED25 ACID domain (391–548)-6xHis (domain or fragment, UniProt Q71SY5 391-548)
chain: GQQSVSNKLLAWSGVLEWQEKPKPASVDANTKLTRSLPCQVYVNHGENLKTEQWPQKLIMQLIPQQLLTTLGPLFRNSRMVQFHFTNKDLESLKGLYRIMGNGFAGCVHFPHTAPCEVRVLMLLYSSKKKIFMGLIPYDQSGFVNGIRQVITNHKQVQ
binds: [1] | [2] | [3]
